Data from the supplement of paper PMC6411743.
± gives the standard deviation of the averaged measurements. Some of the results follow.

Sequences of proteins named here, by UniProt entry; tags and fusion partners are left off. A change or cut given only in a name is not applied to a line headed by its entry.
UniProt Q9Y3A5: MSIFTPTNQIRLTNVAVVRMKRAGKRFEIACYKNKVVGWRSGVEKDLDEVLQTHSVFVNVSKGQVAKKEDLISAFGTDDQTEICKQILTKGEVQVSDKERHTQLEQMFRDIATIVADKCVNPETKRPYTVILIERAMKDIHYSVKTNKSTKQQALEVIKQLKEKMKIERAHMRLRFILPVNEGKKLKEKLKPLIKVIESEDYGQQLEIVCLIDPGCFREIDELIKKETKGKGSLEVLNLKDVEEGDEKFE
UniProt Q6UXV4: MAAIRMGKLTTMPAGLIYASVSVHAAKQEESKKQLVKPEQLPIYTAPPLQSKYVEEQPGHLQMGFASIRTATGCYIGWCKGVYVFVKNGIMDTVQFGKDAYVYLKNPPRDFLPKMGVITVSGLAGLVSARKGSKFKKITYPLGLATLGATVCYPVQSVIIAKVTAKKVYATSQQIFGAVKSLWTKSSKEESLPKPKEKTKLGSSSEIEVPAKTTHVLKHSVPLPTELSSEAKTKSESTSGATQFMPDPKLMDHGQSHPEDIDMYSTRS
UniProt Q8WX92, whole entry: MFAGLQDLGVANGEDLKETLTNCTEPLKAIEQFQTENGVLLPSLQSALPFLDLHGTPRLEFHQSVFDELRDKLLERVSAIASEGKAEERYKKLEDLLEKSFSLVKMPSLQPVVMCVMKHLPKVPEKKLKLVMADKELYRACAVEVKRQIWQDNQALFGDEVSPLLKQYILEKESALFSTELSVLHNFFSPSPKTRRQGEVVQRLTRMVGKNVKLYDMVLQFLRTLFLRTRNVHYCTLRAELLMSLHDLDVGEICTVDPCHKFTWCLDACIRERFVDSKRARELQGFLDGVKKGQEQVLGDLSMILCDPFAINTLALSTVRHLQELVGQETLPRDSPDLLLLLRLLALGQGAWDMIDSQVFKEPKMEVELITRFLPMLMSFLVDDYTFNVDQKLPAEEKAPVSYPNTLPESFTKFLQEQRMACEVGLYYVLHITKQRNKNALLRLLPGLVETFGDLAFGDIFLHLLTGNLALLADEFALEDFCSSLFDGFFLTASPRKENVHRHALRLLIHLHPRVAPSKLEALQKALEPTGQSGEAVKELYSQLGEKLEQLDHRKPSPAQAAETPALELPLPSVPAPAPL
UniProt Q9H2P9: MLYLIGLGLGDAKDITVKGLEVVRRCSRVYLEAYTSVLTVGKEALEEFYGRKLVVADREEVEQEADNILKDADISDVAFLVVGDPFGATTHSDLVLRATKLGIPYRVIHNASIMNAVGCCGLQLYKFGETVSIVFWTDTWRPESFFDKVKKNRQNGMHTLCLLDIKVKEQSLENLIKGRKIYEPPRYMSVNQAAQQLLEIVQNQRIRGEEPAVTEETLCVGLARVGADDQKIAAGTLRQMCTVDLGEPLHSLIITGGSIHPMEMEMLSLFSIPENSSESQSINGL
UniProt Q8IXQ4: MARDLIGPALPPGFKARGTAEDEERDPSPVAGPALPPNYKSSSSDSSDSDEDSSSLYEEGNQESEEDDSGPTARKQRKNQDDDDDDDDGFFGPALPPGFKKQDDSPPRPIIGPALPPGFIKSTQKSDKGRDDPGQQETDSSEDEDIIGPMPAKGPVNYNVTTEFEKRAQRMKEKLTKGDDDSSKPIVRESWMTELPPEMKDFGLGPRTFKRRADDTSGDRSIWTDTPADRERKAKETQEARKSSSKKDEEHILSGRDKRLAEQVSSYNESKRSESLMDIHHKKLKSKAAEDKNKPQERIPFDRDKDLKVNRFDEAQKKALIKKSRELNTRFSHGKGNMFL
UniProt P57768: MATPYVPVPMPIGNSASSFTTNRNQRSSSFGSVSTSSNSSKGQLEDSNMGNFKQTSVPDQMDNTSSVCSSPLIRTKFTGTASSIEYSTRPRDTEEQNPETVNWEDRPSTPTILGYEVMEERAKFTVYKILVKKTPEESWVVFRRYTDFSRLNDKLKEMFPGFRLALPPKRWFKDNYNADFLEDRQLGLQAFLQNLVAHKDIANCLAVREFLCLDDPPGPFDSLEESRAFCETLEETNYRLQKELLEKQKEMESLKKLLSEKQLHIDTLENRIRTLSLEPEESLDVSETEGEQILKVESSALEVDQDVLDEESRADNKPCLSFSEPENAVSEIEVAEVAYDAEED
UniProt P15289: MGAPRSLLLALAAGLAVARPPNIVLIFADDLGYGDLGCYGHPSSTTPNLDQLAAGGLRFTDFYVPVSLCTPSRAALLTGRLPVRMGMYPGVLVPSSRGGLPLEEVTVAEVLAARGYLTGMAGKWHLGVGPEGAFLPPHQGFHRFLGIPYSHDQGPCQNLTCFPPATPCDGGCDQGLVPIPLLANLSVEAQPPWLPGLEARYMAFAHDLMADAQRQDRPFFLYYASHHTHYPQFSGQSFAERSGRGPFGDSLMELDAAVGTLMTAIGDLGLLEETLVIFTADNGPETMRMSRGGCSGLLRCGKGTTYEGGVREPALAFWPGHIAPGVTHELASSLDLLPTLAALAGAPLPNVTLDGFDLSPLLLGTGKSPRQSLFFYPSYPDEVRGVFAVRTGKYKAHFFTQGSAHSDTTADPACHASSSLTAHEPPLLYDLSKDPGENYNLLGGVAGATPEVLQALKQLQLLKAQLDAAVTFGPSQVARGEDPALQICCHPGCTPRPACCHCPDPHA
UniProt Q99996, whole entry: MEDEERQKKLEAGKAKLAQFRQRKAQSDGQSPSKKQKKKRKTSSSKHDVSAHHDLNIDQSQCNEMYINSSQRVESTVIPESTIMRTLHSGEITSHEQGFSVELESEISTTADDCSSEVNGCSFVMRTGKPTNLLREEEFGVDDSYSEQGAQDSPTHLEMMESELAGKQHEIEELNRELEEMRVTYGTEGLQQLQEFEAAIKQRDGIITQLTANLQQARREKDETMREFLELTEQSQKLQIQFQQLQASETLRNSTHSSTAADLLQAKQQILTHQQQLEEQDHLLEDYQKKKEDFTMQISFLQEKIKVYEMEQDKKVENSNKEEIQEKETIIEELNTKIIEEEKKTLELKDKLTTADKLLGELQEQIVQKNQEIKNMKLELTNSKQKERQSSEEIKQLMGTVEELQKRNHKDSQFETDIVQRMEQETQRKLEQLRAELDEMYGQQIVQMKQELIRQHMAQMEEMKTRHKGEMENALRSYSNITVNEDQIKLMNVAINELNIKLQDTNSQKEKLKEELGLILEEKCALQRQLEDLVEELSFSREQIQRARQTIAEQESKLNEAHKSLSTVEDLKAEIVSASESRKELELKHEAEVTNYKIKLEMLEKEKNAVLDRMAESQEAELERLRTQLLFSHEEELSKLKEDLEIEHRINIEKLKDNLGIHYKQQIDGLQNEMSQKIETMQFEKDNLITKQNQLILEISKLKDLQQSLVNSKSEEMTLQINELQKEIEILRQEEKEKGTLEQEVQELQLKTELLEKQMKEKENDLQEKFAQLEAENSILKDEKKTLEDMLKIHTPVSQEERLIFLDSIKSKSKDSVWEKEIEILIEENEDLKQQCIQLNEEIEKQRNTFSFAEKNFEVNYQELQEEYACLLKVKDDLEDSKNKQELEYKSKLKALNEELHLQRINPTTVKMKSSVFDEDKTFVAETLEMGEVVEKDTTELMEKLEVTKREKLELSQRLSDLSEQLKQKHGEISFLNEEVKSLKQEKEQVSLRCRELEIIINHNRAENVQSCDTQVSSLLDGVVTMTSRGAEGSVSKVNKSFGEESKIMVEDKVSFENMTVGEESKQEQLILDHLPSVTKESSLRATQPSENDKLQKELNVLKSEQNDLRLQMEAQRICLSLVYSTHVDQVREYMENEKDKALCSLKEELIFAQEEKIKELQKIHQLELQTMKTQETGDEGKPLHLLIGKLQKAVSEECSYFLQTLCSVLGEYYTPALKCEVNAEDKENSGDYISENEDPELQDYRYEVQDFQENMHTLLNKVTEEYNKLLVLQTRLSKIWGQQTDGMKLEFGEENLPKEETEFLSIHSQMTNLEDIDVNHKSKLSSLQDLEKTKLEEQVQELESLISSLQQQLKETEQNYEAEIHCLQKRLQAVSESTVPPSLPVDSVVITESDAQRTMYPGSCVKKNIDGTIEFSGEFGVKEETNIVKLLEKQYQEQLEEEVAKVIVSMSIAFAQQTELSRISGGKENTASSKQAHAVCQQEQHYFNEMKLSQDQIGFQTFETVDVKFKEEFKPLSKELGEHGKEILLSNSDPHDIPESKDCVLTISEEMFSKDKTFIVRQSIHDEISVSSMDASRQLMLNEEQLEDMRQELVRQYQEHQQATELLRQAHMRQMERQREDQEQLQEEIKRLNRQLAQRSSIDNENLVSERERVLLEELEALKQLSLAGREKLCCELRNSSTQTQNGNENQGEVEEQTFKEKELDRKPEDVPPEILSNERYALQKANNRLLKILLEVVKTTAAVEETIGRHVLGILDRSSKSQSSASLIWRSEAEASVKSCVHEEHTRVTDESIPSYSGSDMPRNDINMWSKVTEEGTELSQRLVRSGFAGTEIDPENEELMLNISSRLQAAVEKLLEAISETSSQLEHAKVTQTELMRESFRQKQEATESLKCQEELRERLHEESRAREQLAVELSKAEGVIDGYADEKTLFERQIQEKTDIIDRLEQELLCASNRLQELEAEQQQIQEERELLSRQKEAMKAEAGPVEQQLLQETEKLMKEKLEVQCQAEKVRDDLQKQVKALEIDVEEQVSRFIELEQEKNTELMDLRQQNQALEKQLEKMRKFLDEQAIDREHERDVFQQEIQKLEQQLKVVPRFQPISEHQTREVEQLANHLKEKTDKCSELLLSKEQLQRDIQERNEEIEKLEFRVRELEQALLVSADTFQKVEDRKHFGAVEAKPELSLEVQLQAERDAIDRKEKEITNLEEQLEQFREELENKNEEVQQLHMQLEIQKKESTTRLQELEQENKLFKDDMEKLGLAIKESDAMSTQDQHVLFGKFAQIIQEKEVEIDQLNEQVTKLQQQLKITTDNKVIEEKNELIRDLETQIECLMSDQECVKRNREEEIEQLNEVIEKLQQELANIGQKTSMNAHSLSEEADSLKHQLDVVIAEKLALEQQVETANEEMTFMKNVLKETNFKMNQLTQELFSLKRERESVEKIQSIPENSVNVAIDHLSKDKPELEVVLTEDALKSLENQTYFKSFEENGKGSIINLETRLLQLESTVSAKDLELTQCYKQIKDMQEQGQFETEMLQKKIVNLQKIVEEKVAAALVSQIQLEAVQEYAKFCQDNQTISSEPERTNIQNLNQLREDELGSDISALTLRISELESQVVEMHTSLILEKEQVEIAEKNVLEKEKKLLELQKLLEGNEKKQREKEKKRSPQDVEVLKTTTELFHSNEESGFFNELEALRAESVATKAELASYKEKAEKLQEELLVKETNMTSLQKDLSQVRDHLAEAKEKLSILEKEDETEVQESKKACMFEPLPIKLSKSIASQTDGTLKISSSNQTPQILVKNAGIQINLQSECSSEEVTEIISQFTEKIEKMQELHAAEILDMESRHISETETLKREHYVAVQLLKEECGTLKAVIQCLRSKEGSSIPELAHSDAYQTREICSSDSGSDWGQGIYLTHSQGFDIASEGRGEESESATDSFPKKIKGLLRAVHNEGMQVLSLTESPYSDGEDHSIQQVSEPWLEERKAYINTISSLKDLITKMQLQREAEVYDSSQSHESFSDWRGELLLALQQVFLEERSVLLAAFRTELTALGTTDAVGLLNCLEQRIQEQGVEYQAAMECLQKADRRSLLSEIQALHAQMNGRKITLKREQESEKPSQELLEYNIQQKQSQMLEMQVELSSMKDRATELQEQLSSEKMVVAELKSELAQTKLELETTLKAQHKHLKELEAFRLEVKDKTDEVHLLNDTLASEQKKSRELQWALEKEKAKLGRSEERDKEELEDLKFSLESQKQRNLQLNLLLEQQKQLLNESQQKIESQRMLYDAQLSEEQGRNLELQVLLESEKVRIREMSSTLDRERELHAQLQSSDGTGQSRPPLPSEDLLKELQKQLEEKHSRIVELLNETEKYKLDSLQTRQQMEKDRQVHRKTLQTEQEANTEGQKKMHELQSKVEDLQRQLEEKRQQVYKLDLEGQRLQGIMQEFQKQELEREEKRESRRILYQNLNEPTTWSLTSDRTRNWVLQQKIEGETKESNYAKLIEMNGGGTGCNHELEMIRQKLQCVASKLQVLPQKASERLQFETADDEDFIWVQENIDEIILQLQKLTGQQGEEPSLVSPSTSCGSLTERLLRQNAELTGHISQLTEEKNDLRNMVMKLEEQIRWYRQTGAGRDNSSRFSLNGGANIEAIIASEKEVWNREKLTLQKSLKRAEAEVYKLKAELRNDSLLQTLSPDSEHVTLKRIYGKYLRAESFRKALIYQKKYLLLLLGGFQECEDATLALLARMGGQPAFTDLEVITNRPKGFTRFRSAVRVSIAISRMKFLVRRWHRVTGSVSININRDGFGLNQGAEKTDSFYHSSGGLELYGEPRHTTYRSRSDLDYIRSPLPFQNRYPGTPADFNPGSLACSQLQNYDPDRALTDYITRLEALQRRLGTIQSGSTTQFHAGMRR

Compound: Nc1nc2c(ncn2[C@@H]2O[C@H](COP(=O)(O)OP(=O)(O)OP(=O)(O)O)[C@@H](O)[C@H]2O)c(=O)[nH]1 [guanosine triphosphate]
Assay: NP40-soluble protein abundance relative to vehicle (solubility fold change) (ratio); higher = more soluble protein in presence of GTP
How it was run: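 Each value is a fold change relative to the detergent-processed vehicle, calculated per replicate from vsn-normalised intensities. Jurkat crude lysate received eight concentrations (0.1 to 10 mM) for 10 min at room temperature and 3 min at 37 °C, then was solubilised in 0.8% NP40 with benzonase (60 min, 4 °C). The ultracentrifuged supernatant was TMT-labelled and run by LC-MS/MS in three independent experiments.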

Target	NP40-soluble protein abundance (concentration: 0.1mM)	NP40-soluble protein abundance (concentration: 0.5mM)	NP40-soluble protein abundance (concentration: 1mM)	NP40-soluble protein abundance (concentration: 2mM)	NP40-soluble protein abundance (concentration: 4mM)	NP40-soluble protein abundance (concentration: 6mM)	NP40-soluble protein abundance (concentration: 8mM)	NP40-soluble protein abundance (concentration: 10mM)
A0A0R4J2E2|Q9Y3T6 and related entries (UniProt Q9Y3T6)	0.88 ± 0.0067	0.877 ± 0.017	0.961 ± 0.019	0.923 ± 0.048	0.94794 ± 0.00022	0.908 ± 0.017	0.89 ± 0.034	0.9192 ± 0.0019
A0A087X1N3|O75818 and related entries (UniProt O75818)	1.12 ± 0.064	1.05 ± 0.07	1.01 ± 0.097	1.09 ± 0.11	1.08 ± 0.18	1.05 ± 0.15	1.06 ± 0.095	1.02 ± 0.12
A0A087X243|P09211 (UniProt P09211)	0.888 ± 0.067	0.947 ± 0.071	0.841 ± 0.064	0.83 ± 0.031	0.792 ± 0.053	0.817 ± 0.044	0.763 ± 0.084	0.783 ± 0.073
A0A0D9SEI3|A0A0D9SEN2|A0A0D9SER5|B7ZVY7 and related entries (UniProt P21127+B7ZVY7)	0.968 ± 0.025	0.944 ± 0.044	0.958 ± 0.041	0.914 ± 0.046	0.872 ± 0.013	0.899 ± 0.046	0.885 ± 0.062	0.887 ± 0.068
A0A0R4J2F3|Q9Y2S0 and related entries (UniProt Q9Y2S0)	1.01 ± 0.075	0.925 ± 0.056	1.11 ± 0.2	1.16 ± 0.14	1.2 ± 0.17	1.17 ± 0.12	1.15 ± 0.21	1.24 ± 0.28
A0A0D9SFK2|Q92614 and related entries (UniProt Q92614)	1 ± 0.062	1.05 ± 0.058	1.02 ± 0.05	1.02 ± 0.071	1.02 ± 0.081	1.01 ± 0.069	1.04 ± 0.11	1.03 ± 0.1
A0A0A0MTC5|A0A0A0MTD1|E7EPX0 and related entries (UniProt Q9NUL3)	1.04 ± 0.025	1.07 ± 0.016	1.11 ± 0.011	1.18 ± 0.063	1.33 ± 0.11	1.36 ± 0.11	1.48 ± 0.14	1.5 ± 0.18
A0A087X020|Q9Y3A5 (UniProt Q9Y3A5)	0.967 ± 0.044	1.01 ± 0.018	0.873 ± 0.011	0.877 ± 0.07	0.885 ± 0.02	0.914 ± 0.012	0.872 ± 0.021	0.908 ± 0.083
A0A087X2I1|P62333 (UniProt P62333)	1.03 ± 0.051	1.06 ± 0.099	1 ± 0.11	1.05 ± 0.15	1.04 ± 0.12	1.04 ± 0.16	1.05 ± 0.15	0.992 ± 0.16
A0A0U1RRC9|P57075 and related entries (UniProt P57075)	1.01 ± 0.067	1.04 ± 0.12	0.905 ± 0.063	0.96 ± 0.066	0.977 ± 0.08	0.968 ± 0.093	0.938 ± 0.032	0.936 ± 0.064
A0A0A0MTL5|Q13309 and related entries (UniProt Q13309)	1.12 ± 0.076	1.04 ± 0.096	1.02 ± 0.075	0.981 ± 0.074	0.951 ± 0.07	0.958 ± 0.08	0.911 ± 0.044	0.855 ± 0.069
A0A087WYF7|Q6UXV4 and related entries (UniProt Q6UXV4)	0.979 ± 0.16	0.938 ± 0.1	0.917 ± 0.083	0.95 ± 0.021	0.975 ± 0.053	0.928 ± 0.045	0.94 ± 0.1	0.922 ± 0.07
A0A0X1KG71|Q8WX92 (UniProt Q8WX92)	0.9588 ± 0.0051	0.964 ± 0.014	0.9785 ± 0.0083	0.973 ± 0.016	0.957 ± 0.025	0.96 ± 0.012	0.936 ± 0.024	0.946 ± 0.02
A0A087WZ13|E9PAU2 (UniProt Q8IY67)	0.994 ± 0.017	0.942 ± 0.03	0.962 ± 0.021	0.96 ± 0.031	0.98 ± 0.021	0.948 ± 0.041	0.942 ± 0.014	0.971 ± 0.037
A0A087WXP7|Q9H2P9 and related entries (UniProt Q9H2P9)	1.02 ± 0.076	0.973 ± 0.095	0.95 ± 0.03	0.936 ± 0.038	0.898 ± 0.05	0.909 ± 0.034	0.905 ± 0.032	0.864 ± 0.034
A0A087X0M4|Q9BWU0 (UniProt Q9BWU0)	1.04 ± 0.013	1.04 ± 0.034	1.09 ± 0.027	1.08 ± 0.023	1.12 ± 0.043	1.1 ± 0.065	1.17 ± 0.079	1.14 ± 0.062
A0A0A0MRI1|Q8IXQ4 (UniProt Q8IXQ4)	0.902 ± 0.043	0.949 ± 0.097	1.03 ± 0.041	1.02 ± 0.081	0.985 ± 0.072	1.04 ± 0.1	1.05 ± 0.062	1.06 ± 0.051
A0A0A0MTR2|Q8N543 (UniProt Q8N543)	1.05 ± 0.048	1.05 ± 0.022	0.948 ± 0.023	0.942 ± 0.055	0.959 ± 0.06	0.897 ± 0.068	0.936 ± 0.03	0.883 ± 0.066
A0A0J9YXM6|Q562E7 and related entries (UniProt Q562E7)	1.005 ± 0.0072	1.08 ± 0.17	1.08 ± 0.29	1.04 ± 0.13	1.07 ± 0.16	1.02 ± 0.14	1.01 ± 0.2	0.99 ± 0.17
A0A0C4DGW2|P57768 and related entries (UniProt P57768)	0.978 ± 0.045	0.924 ± 0.0066	1.02 ± 0.034	0.931 ± 0.063	0.934 ± 0.1	0.941 ± 0.025	0.959 ± 0.048	0.902 ± 0.016
A0A087WXI0 (UniProt Q7Z6P3)	0.997 ± 0.12	0.938 ± 0.11	0.96 ± 0.096	0.929 ± 0.09	0.963 ± 0.097	0.93 ± 0.14	0.944 ± 0.098	0.941 ± 0.14
A0A0C4DFZ2|P15289 and related entries (UniProt P15289)	1.04 ± 0.011	1.01 ± 0.045	0.955 ± 0.061	0.973 ± 0.05	0.937 ± 0.06	0.943 ± 0.051	0.949 ± 0.049	0.941 ± 0.05
A0A0A0MRF6|Q99996 and related entries (UniProt Q99996)	1.03 ± 0.014	1.05 ± 0.017	1.08 ± 0.049	1.1 ± 0.056	1.15 ± 0.09	1.14 ± 0.095	1.18 ± 0.14	1.12 ± 0.13
A0A0D9SGJ6|J3KQV8 and related entries (UniProt O43426)	1.1 ± 0.041	1.05 ± 0.095	0.982 ± 0.044	0.994 ± 0.036	0.986 ± 0.055	0.993 ± 0.017	0.945 ± 0.023	0.943 ± 0.013
A0A0A6YYG7|Q6IBW4 and related entries (UniProt Q6IBW4)	1.04 ± 0.059	1.08 ± 0.06	1.14 ± 0.022	1.1 ± 0.045	1.15 ± 0.028	1.12 ± 0.034	1.2 ± 0.053	1.16 ± 0.11

5 successive records from above:
Target	NP40-soluble protein abundance (concentration: 0.1mM)	NP40-soluble protein abundance (concentration: 0.5mM)	NP40-soluble protein abundance (concentration: 1mM)	NP40-soluble protein abundance (concentration: 2mM)	NP40-soluble protein abundance (concentration: 4mM)	NP40-soluble protein abundance (concentration: 6mM)	NP40-soluble protein abundance (concentration: 8mM)	NP40-soluble protein abundance (concentration: 10mM)
A0A0C4DGW2|P57768 and related entries (UniProt P57768)	0.978 ± 0.045	0.924 ± 0.0066	1.02 ± 0.034	0.931 ± 0.063	0.934 ± 0.1	0.941 ± 0.025	0.959 ± 0.048	0.902 ± 0.016
A0A087WXI0 (UniProt Q7Z6P3)	0.997 ± 0.12	0.938 ± 0.11	0.96 ± 0.096	0.929 ± 0.09	0.963 ± 0.097	0.93 ± 0.14	0.944 ± 0.098	0.941 ± 0.14
A0A0C4DFZ2|P15289 and related entries (UniProt P15289)	1.04 ± 0.011	1.01 ± 0.045	0.955 ± 0.061	0.973 ± 0.05	0.937 ± 0.06	0.943 ± 0.051	0.949 ± 0.049	0.941 ± 0.05
A0A0A0MRF6|Q99996 and related entries (UniProt Q99996)	1.03 ± 0.014	1.05 ± 0.017	1.08 ± 0.049	1.1 ± 0.056	1.15 ± 0.09	1.14 ± 0.095	1.18 ± 0.14	1.12 ± 0.13
A0A0D9SGJ6|J3KQV8 and related entries (UniProt O43426)	1.1 ± 0.041	1.05 ± 0.095	0.982 ± 0.044	0.994 ± 0.036	0.986 ± 0.055	0.993 ± 0.017	0.945 ± 0.023	0.943 ± 0.013
